# Measurements taken from PMC7819943, “Rice protein-binding microarrays: a tool to detect cis-acting elements near promoter regions in rice”.
# Protein sequences, listed by entry. Tags and fused reporters are not part of them.
# UniProt Q0JBA9, entry or part of it: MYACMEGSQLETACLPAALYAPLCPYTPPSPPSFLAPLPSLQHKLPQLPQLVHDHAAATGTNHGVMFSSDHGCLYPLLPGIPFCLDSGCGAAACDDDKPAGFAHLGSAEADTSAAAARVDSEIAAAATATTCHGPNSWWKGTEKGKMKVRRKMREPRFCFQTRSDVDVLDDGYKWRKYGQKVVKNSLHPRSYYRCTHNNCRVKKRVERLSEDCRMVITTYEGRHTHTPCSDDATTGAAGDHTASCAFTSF
# This is one part of the list.
# Target: OsWRKY34 (Oryza sativa, UniProt Q0JBA9 1-250)
# Test: protein-binding microarray (RPBM); PBS, 2% BSA, 51.3 ng/ul salmon testes DNA, 50 uM zinc acetate, 200 nM TF, 25 C, 1 h; high values mean tight binding
# Settings: protein: recombinant; tags: N-terminal polyhistidine and DsRed monomer fusion (pET32a); label: CyDye5-dUTP incorporated in the synthesized complementary strand; 3' TTTTT single-stranded linker to array surface; dsDNA, one strand shown
# Method in brief: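 Per-feature fluorescence intensity (arbitrary units), read on an Axon 4000B scanner, is the binding signal. Transcription factors carrying an N-terminal polyhistidine tag and DsRed fusion were expressed in E. coli BL21-CodonPlus and purified on Ni–NTA. A custom Agilent array, made double-stranded by primer extension with Cy5-dUTP and blocked with 2% BSA, was incubated with 200 nM protein in PBS, 2% BSA, salmon testes DNA and 50 µM zinc acetate at 25 °C for 1 h and then washed.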
row,Sequence,binding signal
1,GCCTTGGTGCAATTCACCTTTTCTTTGGTGCGATAAAATGCGGAGTCACCTAGTGCAG,9240 fluorescence intensity (a.u.)
2,GTAGCCGAACACACCCATACATATTCTACTAATTTAAATACGGAGTCACCTAGTGCAG,8210 fluorescence intensity (a.u.)
3,GCGATGTCCATGTTGATTTCCGGCCGGTCGCTCCATTGTCCGGAGTCACCTAGTGCAG,11100 fluorescence intensity (a.u.)
4,GCATCATTGGAAGTGTAGAGTTTGCATTTATCCGTTTTCTCGGAGTCACCTAGTGCAG,8170 fluorescence intensity (a.u.)
5,GATACTGTTCTCATTTGCCATTTTAGTAATATGCCACTTCCGGAGTCACCTAGTGCAG,12000 fluorescence intensity (a.u.)
6,TGTGTCTTTCATCTCGTTCGTCTCGAGCAGGCGGTTAACCCGGAGTCACCTAGTGCAG,9780 fluorescence intensity (a.u.)
7,AGTGGGCCTGACTAATACTGTTTTTTTTTCCTTTTAATTTCGGAGTCACCTAGTGCAG,9440 fluorescence intensity (a.u.)
8,GAGGCGACTTTTTTTTGTGCTCTTTCTTTTACATATACCCCGGAGTCACCTAGTGCAG,9150 fluorescence intensity (a.u.)
9,ACGCCAACCCGGATTCAAAACCTTTCCGCTACATTGACTGCGGAGTCACCTAGTGCAG,8360 fluorescence intensity (a.u.)
10,AAAAATCCAGACGCCGCGATGGGGTTGGGTTGGGTACTTGCGGAGTCACCTAGTGCAG,12000 fluorescence intensity (a.u.)
11,TAATCATTGTAGTATTTCCTTTTTTTCTGTGTGTTGGGAACGGAGTCACCTAGTGCAG,13500 fluorescence intensity (a.u.)
12,TCCATCGGTTCTCTGCTCTGTTCATCCATAGAGTTTCCTCCGGAGTCACCTAGTGCAG,8250 fluorescence intensity (a.u.)
13,CGCCGTTGACTTTTTCTCACATGTTTGACCATTCGTCTTACGGAGTCACCTAGTGCAG,42500 ± 475 fluorescence intensity (a.u.)
14,GGCTGGCTGGGTCGGTCGGGTTCTTTCTTGATCTGCATTTCGGAGTCACCTAGTGCAG,10800 fluorescence intensity (a.u.)
15,ATAATAATATTTTTCACCTATGCCATACTTCTTTTGTCAACGGAGTCACCTAGTGCAG,8040 fluorescence intensity (a.u.)
16,TCGGTCAGTAACTCCCTGGCCCACCACCACTCTTCTTTGGCGGAGTCACCTAGTGCAG,8320 fluorescence intensity (a.u.)
17,GATTTGGTCTGGTTTGGTTGGAGGTTAGCTCGCCTCTGATCGGAGTCACCTAGTGCAG,19400 fluorescence intensity (a.u.)
18,GCGGAGGGGAGGCGGAGGGGAGGCAGAGTAGGTAGAGGAGCGGAGTCACCTAGTGCAG,12000 fluorescence intensity (a.u.)
19,GACTCGAGCCCGTGCCGCACGGGGCATTTCCACCGTCGGACGGAGTCACCTAGTGCAG,8130 fluorescence intensity (a.u.)
20,ATGATTTCGGGGATGTGCAGGGCTGGTGATCTGGACGGTGCGGAGTCACCTAGTGCAG,15000 fluorescence intensity (a.u.)
21,ATTTTGATTTAGACTAGCTTTTCTTTTTCTCAGTTTTATCCGGAGTCACCTAGTGCAG,11300 fluorescence intensity (a.u.)

row,Sequence,binding signal
1,CCTCCATTTCTTTAGCGGTTGCCAAGGGTTCTTGAGCTGTCGGAGTCACCTAGTGCAG,9360 fluorescence intensity (a.u.)
2,CCCGCTCAGCCCATGCGCCACCCGCCGCCGCGGCTGCCACCGGAGTCACCTAGTGCAG,8500 fluorescence intensity (a.u.)
3,ACTCTGCCGCCGCCACTCCACCACCACTCCGTCGCCGTGGCGGAGTCACCTAGTGCAG,8290 fluorescence intensity (a.u.)
4,TGTCATCGTCATCTTCTCCAACGCCGGCCTATATATACCACGGAGTCACCTAGTGCAG,9370 fluorescence intensity (a.u.)
5,TCTTTATGAAGTCCTTGTCACAGTTGATGACTTGCTTAATCGGAGTCACCTAGTGCAG,9070 fluorescence intensity (a.u.)
6,CCACACTCCGTCGGCCACCTGCCCTACTCCTCCCTCCTCTCGGAGTCACCTAGTGCAG,8940 fluorescence intensity (a.u.)
7,TGACGCCGGTGGGTTTGTGTGTTAGTGTGACATATGTGTGCGGAGTCACCTAGTGCAG,9130 fluorescence intensity (a.u.)
8,GGGATTTTTATTTAGGATTTTCTTTTATCTGTATTTTTTTCGGAGTCACCTAGTGCAG,8860 fluorescence intensity (a.u.)
9,AAAGAACCGATCACCATTCCATTTCGCTTCTCTCCCAGTTCGGAGTCACCTAGTGCAG,10700 fluorescence intensity (a.u.)
10,TTGTTCCTTTACAGTTTACAGTCATCTCTATTGTAGTATTCGGAGTCACCTAGTGCAG,9770 fluorescence intensity (a.u.)
11,GCCGCCACACCCGACTATTATGGCGACTACTCTCGGCCAGCGGAGTCACCTAGTGCAG,9530 fluorescence intensity (a.u.)
12,ATTATGCCATGATTTTCTTTTAAGTATACGAATACACATTCGGAGTCACCTAGTGCAG,8120 fluorescence intensity (a.u.)
13,CTCTTCTCGTAACTTTGATCTCTCTTATTGATGAACTCTTCGGAGTCACCTAGTGCAG,9540 fluorescence intensity (a.u.)
14,CGTCATGCCTCACAGTTTTTCTTCTCTTTTTCCTTCTTCTCGGAGTCACCTAGTGCAG,8040 fluorescence intensity (a.u.)
15,CGGTTTGTTGAGATGGCCTCTCTCCCGTCGGATACTGTCGCGGAGTCACCTAGTGCAG,8700 fluorescence intensity (a.u.)
16,GGTGCGTCGTGGGTGGATTCGGATGGTTGCTTGGTAGGATCGGAGTCACCTAGTGCAG,8160 fluorescence intensity (a.u.)
17,CGTCCCCGGCCTCACCCCGGCCTCGCGTACGGAAGTCGTCCGGAGTCACCTAGTGCAG,8810 fluorescence intensity (a.u.)
18,AGACACCTGGCACAACACACATCGCCCATCTTACACGTGCCGGAGTCACCTAGTGCAG,8590 fluorescence intensity (a.u.)
19,GGAATTGCGCGCGCGCTGGTGGAGGGAGACGGGTGGGGATCGGAGTCACCTAGTGCAG,10700 fluorescence intensity (a.u.)
20,ACCATTGTCGCATGCTCACATCCCATCTTTTCCAAAGGGACGGAGTCACCTAGTGCAG,10300 fluorescence intensity (a.u.)
21,CAAGGCAGCACAGAACAGAGCACTCCCTCTCCCACCACCACGGAGTCACCTAGTGCAG,8360 fluorescence intensity (a.u.)

# Not a retest: entries from further up.
row,Sequence,binding signal
5,TCTTTATGAAGTCCTTGTCACAGTTGATGACTTGCTTAATCGGAGTCACCTAGTGCAG,9070 fluorescence intensity (a.u.)
6,CCACACTCCGTCGGCCACCTGCCCTACTCCTCCCTCCTCTCGGAGTCACCTAGTGCAG,8940 fluorescence intensity (a.u.)
7,TGACGCCGGTGGGTTTGTGTGTTAGTGTGACATATGTGTGCGGAGTCACCTAGTGCAG,9130 fluorescence intensity (a.u.)
8,GGGATTTTTATTTAGGATTTTCTTTTATCTGTATTTTTTTCGGAGTCACCTAGTGCAG,8860 fluorescence intensity (a.u.)
9,AAAGAACCGATCACCATTCCATTTCGCTTCTCTCCCAGTTCGGAGTCACCTAGTGCAG,10700 fluorescence intensity (a.u.)
10,TTGTTCCTTTACAGTTTACAGTCATCTCTATTGTAGTATTCGGAGTCACCTAGTGCAG,9770 fluorescence intensity (a.u.)
11,GCCGCCACACCCGACTATTATGGCGACTACTCTCGGCCAGCGGAGTCACCTAGTGCAG,9530 fluorescence intensity (a.u.)
12,ATTATGCCATGATTTTCTTTTAAGTATACGAATACACATTCGGAGTCACCTAGTGCAG,8120 fluorescence intensity (a.u.)
13,CTCTTCTCGTAACTTTGATCTCTCTTATTGATGAACTCTTCGGAGTCACCTAGTGCAG,9540 fluorescence intensity (a.u.)
14,CGTCATGCCTCACAGTTTTTCTTCTCTTTTTCCTTCTTCTCGGAGTCACCTAGTGCAG,8040 fluorescence intensity (a.u.)
15,CGGTTTGTTGAGATGGCCTCTCTCCCGTCGGATACTGTCGCGGAGTCACCTAGTGCAG,8700 fluorescence intensity (a.u.)

# (cont.)

row,Sequence,binding signal
1,CATCGCTTCCCAGCCGCAGTTTTGACCGGGAGGATTCCATCGGAGTCACCTAGTGCAG,8240 fluorescence intensity (a.u.)
2,GTGATGGGGTGAGCCAATTGGGTTGGGTTGGCTAGGCTGACGGAGTCACCTAGTGCAG,8500 fluorescence intensity (a.u.)
3,TAGAGAATTGATTGGGCTTTTGGTTGACTTCTTTGACACGCGGAGTCACCTAGTGCAG,11900 fluorescence intensity (a.u.)
4,ATGTATGCACGATGTGAGTGTCCGTGTTTGTAATGTGTTTCGGAGTCACCTAGTGCAG,11300 fluorescence intensity (a.u.)
5,TCTTTAGGGGCAAATTTTGATGGTCAACGTATCCTCAGCACGGAGTCACCTAGTGCAG,9510 fluorescence intensity (a.u.)
6,GTCCGTCTTATATAAAATTTTTTTATAATTTATATTTTCACGGAGTCACCTAGTGCAG,8500 fluorescence intensity (a.u.)
7,AACAGCAGCAGCGTGGCGCCTTGACCGTTTGACCTCGCAACGGAGTCACCTAGTGCAG,9590 fluorescence intensity (a.u.)
8,TTTCTCTGCCTTTCTTTCTTCTATCGTCCATGCTTCATCACGGAGTCACCTAGTGCAG,9310 fluorescence intensity (a.u.)
9,AACTACTTTCTTTTCATTACTAATGATCATCATATCTTTCCGGAGTCACCTAGTGCAG,9780 fluorescence intensity (a.u.)
10,TGTGTGTGTGTGTGTGTGTGTGTGTGATGGATTAAAAAATCGGAGTCACCTAGTGCAG,8470 fluorescence intensity (a.u.)
11,CCAGGCGTCGCCGAGCTCTGCTCCGTCGTGTCAGCTTCTTCGGAGTCACCTAGTGCAG,8140 fluorescence intensity (a.u.)
12,TTCTTCAGTTTTTAACTAATCCTAATCTAGTTCTATTTTTCGGAGTCACCTAGTGCAG,8090 fluorescence intensity (a.u.)
13,CCACTTCTCGCCTTGCTCGCATTCCTTCCTTGCCTCCATCCGGAGTCACCTAGTGCAG,8400 fluorescence intensity (a.u.)
14,CACCACCACCACCACCTCTTCCCTCCCCGGCGTCCGCTCCCGGAGTCACCTAGTGCAG,9030 fluorescence intensity (a.u.)
15,AACTCACACTCGCTCGCTCATCGCCATCTCTCTCAGCTCTCGGAGTCACCTAGTGCAG,15800 fluorescence intensity (a.u.)
16,ATGTCCCGTTCTGAAAAGTAACACTCCTTCCATCTTTTTCCGGAGTCACCTAGTGCAG,9930 fluorescence intensity (a.u.)
17,TCATCCATCGCCCATTCGCCCGATGCTGTGAGTTTTCTTTCGGAGTCACCTAGTGCAG,13100 fluorescence intensity (a.u.)
18,GCCGTCGCCGCCGACACCCCGCCATCTCGCGCGACGCCGCCGGAGTCACCTAGTGCAG,8040 fluorescence intensity (a.u.)
19,CCGCGAATTTATTTACATTTTCTCATCTCATTTGTTTTCGCGGAGTCACCTAGTGCAG,13900 fluorescence intensity (a.u.)
20,CCCTTCTCACTGTTCATGTCGCTCTATCTTTACTCGCCATCGGAGTCACCTAGTGCAG,10500 fluorescence intensity (a.u.)
21,ACCCGCCCCGGCCGGCCACCGTGTAGCAAGTATACTATTTCGGAGTCACCTAGTGCAG,8160 fluorescence intensity (a.u.)

row,Sequence,binding signal
1,GTCTCTGTCCCGTCAAACTGAAGCGAGCGAGAGATTGACCCGGAGTCACCTAGTGCAG,8630 fluorescence intensity (a.u.)
2,CACGGATTCCTACGAGAGGATTCTCGTATTGTTGTGGCCCCGGAGTCACCTAGTGCAG,8170 fluorescence intensity (a.u.)
3,CAGATTTAAGCAGGTCATCTCCACTGCACATACTACTCAACGGAGTCACCTAGTGCAG,8620 fluorescence intensity (a.u.)
4,CCCGTTGCTGCCAGGTTCAGTTCGTTCAAACCAAACCTACCGGAGTCACCTAGTGCAG,9720 fluorescence intensity (a.u.)
5,TCTTATTATCGTTACAATGTCACAATATATATCACTATCACGGAGTCACCTAGTGCAG,8750 fluorescence intensity (a.u.)
6,GCTAATTATACCACTCGAGCCATTGGTTTCGGCAACAATTCGGAGTCACCTAGTGCAG,14800 fluorescence intensity (a.u.)
7,TTCCGTTATCCGCCTAACTTTTCTGTTGAGATCGGAACTTCGGAGTCACCTAGTGCAG,9600 fluorescence intensity (a.u.)
8,CTTTTCTTCCTTGTCCACCATCCCCAGTTCCCCATCACAACGGAGTCACCTAGTGCAG,9870 fluorescence intensity (a.u.)
9,TTGGTTGCACTCCTGTCTCAACACAGTATTTAACCCATGTCGGAGTCACCTAGTGCAG,8410 fluorescence intensity (a.u.)
10,CATGTGCTGCTCAGTCGCTCAGAGCCTCAGATCACCCACCCGGAGTCACCTAGTGCAG,9370 fluorescence intensity (a.u.)
11,GCAACTTTTTTTCCAAATGTTTGGCATCTGGTGTGTCATCCGGAGTCACCTAGTGCAG,8040 fluorescence intensity (a.u.)
12,TCTCGTTGATTTCTTTTCCCTTTGCCAGCTTTCGCTTTTCCGGAGTCACCTAGTGCAG,13800 fluorescence intensity (a.u.)
13,AAAAAGTCAACGGCGTCAAACATTTAGGGATGGAGGGAGTCGGAGTCACCTAGTGCAG,8190 fluorescence intensity (a.u.)
14,GAGATCCGATCGCCTGCCGTTTCCATATTCTTTATCCCCACGGAGTCACCTAGTGCAG,8420 fluorescence intensity (a.u.)
15,TTTTAAAACTGATTTATAATCAAAGGTTCTAATGTTTGACCGGAGTCACCTAGTGCAG,9370 fluorescence intensity (a.u.)
16,TTTTTTTCATGCCACTTAGGTAGATCGCGCATTGTGTTTTCGGAGTCACCTAGTGCAG,11000 fluorescence intensity (a.u.)
17,CAACTAACAATCAACTGACGGGAGGGGTATGGAAGGGATCCGGAGTCACCTAGTGCAG,9460 fluorescence intensity (a.u.)
18,AATCGGCCGCCGGGCACCTGACCTGACCTGACCTCTCTTCCGGAGTCACCTAGTGCAG,9210 fluorescence intensity (a.u.)
19,ATTGTCCATGATGTTCTTCCTTTTCTTTTTCGTTGTCAAACGGAGTCACCTAGTGCAG,10300 fluorescence intensity (a.u.)
20,AGCTCCGTTGATTACTTGGGCTTTTTAATGGATTCGGATGCGGAGTCACCTAGTGCAG,8580 fluorescence intensity (a.u.)
21,CATTTTCTCCTCCCTGAGTTGACCGTTCCAGTTAGTTTAACGGAGTCACCTAGTGCAG,10300 fluorescence intensity (a.u.)
